PubChem BioAssay AID1259254, NCATS | 2017
Here is an unselected part of about 59,000 deposited reagents. About 1,550 of all reagents (2.6%) count as active. 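G2 share is only a proxy for re-replication; each gene was hit by three separate siRNAs, and active genes were retested.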 Raw values are not corrected between plates. The numbers tell different reagents against one gene apart. The record does not give: the amount of reagent.

Purpose: 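Finding genes that stop cells copying their DNA twice in one cycle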 (primary screen)
System: human HCT116 colorectal cancer cells
Reagent: single siRNA against human genes
Duration: 3 days
Detection: 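Imaged Hoechst DNA stain sorts each cell into a cycle phase by DNA amount; per plate, G2 fraction set to 0% for non-targeting and 100% for GMNN siRNA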
Scale: G2 robust z-score and G2 cells, % of GMNN control: higher = more G2 cells, more excess DNA replication; raw share of cells in G2: higher = larger share of cells with G2 DNA content
Call rule: 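An siRNA counts as active if its G2 robust z-score lies at least 5 MADs above the screen median; here such calls match roughly 38% of GMNN control or more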

gene | reagent | G2 robust z-score | G2 cells, % of GMNN control | raw share of cells in G2 (%) | Outcome
RBMS3 | 1 | 1.49 | 13.5 | 8.39 | inactive
RBMS3 | 2 | -0.996 | -4.04 | 2.84 | inactive
RBMS3 | 3 | 1.03 | 10.2 | 10.8 | inactive
DAXX | 1 | 1.61 | 14.3 | 10.1 | inactive
DAXX | 2 | -0.568 | -1.03 | 3.74 | inactive
DAXX | 3 | 0.604 | 7.21 | 7.63 | inactive
ITGB3BP | 1 | 0.583 | 7.07 | 7.07 | inactive
ITGB3BP | 2 | 0.155 | 4.06 | 5.7 | inactive
ITGB3BP | 3 | 0.282 | 4.95 | 5.03 | inactive
TMEM164 | 1 | 4.71 | 36.1 | 16.1 | inactive
TMEM164 | 2 | 2.59 | 21.2 | 9.75 | inactive
TMEM164 | 3 | -0.82 | -2.8 | 1.55 | inactive
CLEC9A | 1 | 0.585 | 7.08 | 6.22 | inactive
CLEC9A | 2 | 1.24 | 11.7 | 7.57 | inactive
CLEC9A | 3 | 0.688 | 7.81 | 5.64 | inactive
ITGB4 | 1 | -1.19 | -5.42 | 2.22 | inactive
ITGB4 | 2 | 0.459 | 6.2 | 8.04 | inactive
ITGB4 | 3 | -0.125 | 2.09 | 5.8 | inactive
FTCD | 1 | -0.2 | 1.56 | 6.37 | inactive
FTCD | 2 | -0.599 | -1.25 | 3.44 | inactive
FTCD | 3 | 3.78 | 29.6 | 18.1 | inactive
ST8SIA2 | 1 | 0.0289 | 3.17 | 5.52 | inactive
ST8SIA2 | 2 | 0.526 | 6.67 | 8.41 | inactive
ST8SIA2 | 3 | -0.299 | 0.867 | 4.58 | inactive
TMEM231 | 1 | 4.96 | 37.9 | 21.1 | inactive
TMEM231 | 2 | -0.352 | 0.49 | 4.83 | inactive
TMEM231 | 3 | -0.402 | 0.14 | 2.73 | inactive
ARSI | 1 | -0.112 | 2.18 | 6.84 | inactive
ARSI | 2 | -0.299 | 0.863 | 5.3 | inactive
ARSI | 3 | -0.374 | 0.334 | 4.41 | inactive
GOLM1 | 1 | -0.156 | 1.87 | 4.57 | inactive
GOLM1 | 2 | -0.664 | -1.7 | 3.9 | inactive
GOLM1 | 3 | -1.08 | -4.63 | 1.79 | inactive
TTC7A | 1 | 1.74 | 15.2 | 11.9 | inactive
TTC7A | 2 | 3.88 | 30.2 | 15 | inactive
TTC7A | 3 | -0.257 | 1.16 | 4.65 | inactive
PBX4 | 1 | 6.41 | 48.1 | 27.6 | active
PBX4 | 2 | -0.485 | -0.445 | 2.64 | inactive
PBX4 | 3 | -0.339 | 0.581 | 3.81 | inactive
FLG2 | 1 | -0.203 | 1.54 | 5.29 | inactive
FLG2 | 2 | -0.72 | -2.1 | 3.05 | inactive
FLG2 | 3 | -0.868 | -3.14 | 2.04 | inactive
DNAH5 | 1 | -1.01 | -4.13 | 3.48 | inactive
DNAH5 | 2 | 4.43 | 34.1 | 15.8 | inactive
DNAH5 | 3 | -0.423 | -0.00618 | 4.96 | inactive
NES | 1 | -0.558 | -0.956 | 3.53 | inactive
NES | 2 | -1.1 | -4.78 | 4.59 | inactive
NES | 3 | 1.49 | 13.5 | 11.6 | inactive
SNRNP35 | 1 | 0.248 | 4.71 | 8.26 | inactive
SNRNP35 | 2 | -0.221 | 1.41 | 4.63 | inactive
SNRNP35 | 3 | -1.13 | -4.98 | 2.16 | inactive
NCK1 | 1 | 2.42 | 20 | 13.4 | inactive
NCK1 | 2 | -0.0765 | 2.43 | 4 | inactive
NCK1 | 3 | -0.238 | 1.3 | 5.86 | inactive
G2E3 | 1 | 0.695 | 7.86 | 7.54 | inactive
G2E3 | 2 | 0.697 | 7.87 | 7.4 | inactive
G2E3 | 3 | 5.01 | 38.2 | 15.3 | active
DYDC2 | 1 | 2.6 | 21.3 | 11.2 | inactive
DYDC2 | 2 | -0.084 | 2.38 | 4.16 | inactive
DYDC2 | 3 | -0.173 | 1.75 | 2.94 | inactive
FOXF1 | 1 | 2.69 | 21.9 | 11.5 | inactive
FOXF1 | 2 | 0.209 | 4.44 | 6.95 | inactive
FOXF1 | 3 | 3.39 | 26.8 | 15 | inactive
P2RY8 | 1 | -0.605 | -1.29 | 5.38 | inactive
P2RY8 | 2 | -0.344 | 0.549 | 4.71 | inactive
P2RY8 | 3 | -0.0679 | 2.49 | 4.03 | inactive
THEM5 | 1 | 0.41 | 5.85 | 5.77 | inactive
THEM5 | 2 | -0.758 | -2.36 | 2.13 | inactive
THEM5 | 3 | 1.12 | 10.8 | 6.56 | inactive

Ordered by “raw share of cells in G2 (%)” (ascending): some entries from above.
gene | reagent | G2 robust z-score | G2 cells, % of GMNN control | raw share of cells in G2 (%) | Outcome
RBMS3 | 2 | -0.996 | -4.04 | 2.84 | inactive
DAXX | 2 | -0.568 | -1.03 | 3.74 | inactive
ITGB3BP | 2 | 0.155 | 4.06 | 5.7 | inactive
ITGB3BP | 1 | 0.583 | 7.07 | 7.07 | inactive
DAXX | 3 | 0.604 | 7.21 | 7.63 | inactive
RBMS3 | 1 | 1.49 | 13.5 | 8.39 | inactive
DAXX | 1 | 1.61 | 14.3 | 10.1 | inactive
RBMS3 | 3 | 1.03 | 10.2 | 10.8 | inactive
